# Laboratory results as given in the supplement of paper PMC11659162.
# The other results are listed elsewhere or left out. This is a noisy data set.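 The cells are a human neuroglioma line carrying a green fluorescent autophagy reporter.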
# Columns and labels:
# [1] = system: H4 GFP-LC3; test: cell viability (scaled to control) (fraction of control); higher = more viable cells
# [2] = system: H4 GFP-LC3; test: ACBP immunofluorescence intensity (scaled to control) (AU (scaled)); higher = more intracellular ACBP/DBI
smiles,measurement,setting,value
CC(=O)NCCc1c(Cc2ccccc2)[nH]c2ccccc12 (5 µM),cell viability,[1]; 6 h,0.997
same,cell viability,[1]; 24 h,1.14
same,ACBP immunofluorescence intensity,[2]; 6 h,0.991
same,ACBP immunofluorescence intensity,[2]; 24 h,0.933
CN/C(=N\CCSCc1nc[nH]c1C)NC#N (5 µM),cell viability,[1]; 6 h,0.981
same,cell viability,[1]; 24 h,1.07
same,ACBP immunofluorescence intensity,[2]; 6 h,0.875
same,ACBP immunofluorescence intensity,[2]; 24 h,0.683
Nc1ncnc2c1ncn2[C@@H]1O[C@H](COP(=O)(O)CP(=O)(O)OP(=O)(O)O)[C@@H](O)[C@H]1O (5 µM),cell viability,[1]; 6 h,0.98
same,cell viability,[1]; 24 h,1.29
same,ACBP immunofluorescence intensity,[2]; 6 h,1
same,ACBP immunofluorescence intensity,[2]; 24 h,0.896
NC(=O)CC(NC(=O)Cc1ccc(O)cc1O)C(=O)O (stereo unspecified) (5 µM),cell viability,[1]; 6 h,1.16
same,cell viability,[1]; 24 h,1.15
same,ACBP immunofluorescence intensity,[2]; 6 h,0.921
same,ACBP immunofluorescence intensity,[2]; 24 h,0.448
O=c1[nH]c2cc(Cl)ccc2c(O)c1-c1cccc(Oc2ccccc2)c1 (5 µM),cell viability,[1]; 6 h,1.07
same,cell viability,[1]; 24 h,1.12
same,ACBP immunofluorescence intensity,[2]; 6 h,0.662
same,ACBP immunofluorescence intensity,[2]; 24 h,0.766
N[C@@H](CS(=O)O)C(=O)O (5 µM),cell viability,[1]; 6 h,1.05
same,cell viability,[1]; 24 h,1.3
same,ACBP immunofluorescence intensity,[2]; 6 h,0.962
same,ACBP immunofluorescence intensity,[2]; 24 h,0.846
NC(N)=NC(N)=Nc1cccc(Cl)c1 (5 µM),cell viability,[1]; 6 h,0.812
same,cell viability,[1]; 24 h,0.993
same,ACBP immunofluorescence intensity,[2]; 6 h,0.843
same,ACBP immunofluorescence intensity,[2]; 24 h,0.539
CN1CCN(CCc2ccc(Cl)c(Cl)c2)CC1 (5 µM),cell viability,[1]; 6 h,1.06
same,cell viability,[1]; 24 h,0.76
same,ACBP immunofluorescence intensity,[2]; 6 h,0.761
same,ACBP immunofluorescence intensity,[2]; 24 h,0.605
CN1CCN(c2nc3cc(C(F)(F)F)ccc3n3cccc23)CC1 (5 µM),cell viability,[1]; 6 h,0.879
same,cell viability,[1]; 24 h,0.993
same,ACBP immunofluorescence intensity,[2]; 6 h,0.814
same,ACBP immunofluorescence intensity,[2]; 24 h,0.668
C[C@]12CCC(=O)C=C1CC[C@@H]1[C@@H]2[C@@H](O)C[C@@]2(C)[C@H]1CC[C@]2(O)C(=O)CO (5 µM),cell viability,[1]; 6 h,1.06
same,cell viability,[1]; 24 h,0.881
same,ACBP immunofluorescence intensity,[2]; 6 h,0.543
same,ACBP immunofluorescence intensity,[2]; 24 h,0.632
N#Cc1ccccc1OCC(O)CNCCNC(=O)Nc1ccccc1 (stereo unspecified) (5 µM),cell viability,[1]; 6 h,0.884
same,cell viability,[1]; 24 h,0.872
same,ACBP immunofluorescence intensity,[2]; 6 h,0.853
same,ACBP immunofluorescence intensity,[2]; 24 h,0.434
O=C(O)[C@@H]1C[C@H](CP(=O)(O)O)CCN1 (5 µM),cell viability,[1]; 6 h,1.01
same,cell viability,[1]; 24 h,1.18
same,ACBP immunofluorescence intensity,[2]; 6 h,0.969
same,ACBP immunofluorescence intensity,[2]; 24 h,0.836
CC(C)(C)c1ccc(C(O)CCCN2CCC(C(O)(c3ccccc3)c3ccccc3)CC2)cc1 (stereo unspecified) (5 µM),cell viability,[1]; 6 h,0.838
same,cell viability,[1]; 24 h,1
same,ACBP immunofluorescence intensity,[2]; 6 h,0.942
same,ACBP immunofluorescence intensity,[2]; 24 h,0.929
CCNC(=O)N1CCN(CCCC(c2ccc(F)cc2)c2ccc(F)cc2)CC1 (5 µM),cell viability,[1]; 6 h,0.779
same,cell viability,[1]; 24 h,1.07
same,ACBP immunofluorescence intensity,[2]; 6 h,0.999
same,ACBP immunofluorescence intensity,[2]; 24 h,0.831
Cc1cc2c(OCC(CNC(C)(C)C)OC(=O)c3ccccc3)cccc2[nH]1 (stereo unspecified) (5 µM),cell viability,[1]; 6 h,0.704
same,cell viability,[1]; 24 h,0.998
same,ACBP immunofluorescence intensity,[2]; 6 h,0.877
same,ACBP immunofluorescence intensity,[2]; 24 h,0.531
Clc1ccc2nsnc2c1NC1=NCCN1 (5 µM),cell viability,[1]; 6 h,0.668
same,cell viability,[1]; 24 h,0.711
same,ACBP immunofluorescence intensity,[2]; 6 h,0.812
same,ACBP immunofluorescence intensity,[2]; 24 h,0.903
O=C(O)c1cc(=O)c2ccccc2[nH]1 (5 µM),cell viability,[1]; 6 h,1.08
same,cell viability,[1]; 24 h,0.995
same,ACBP immunofluorescence intensity,[2]; 6 h,0.861
same,ACBP immunofluorescence intensity,[2]; 24 h,0.389
CN[C@H](CC(=O)O)C(=O)O (5 µM),cell viability,[1]; 6 h,0.964
same,cell viability,[1]; 24 h,1.04
same,ACBP immunofluorescence intensity,[2]; 6 h,0.991
same,ACBP immunofluorescence intensity,[2]; 24 h,0.786
COc1ccccc1N1CCN(CCN2C(=O)CC3(CCCC3)CC2=O)CC1 (5 µM),cell viability,[1]; 6 h,0.816
same,cell viability,[1]; 24 h,0.87
same,ACBP immunofluorescence intensity,[2]; 6 h,0.946
same,ACBP immunofluorescence intensity,[2]; 24 h,0.558
c1ccc2c(CC3=NCCN3)cccc2c1 (5 µM),cell viability,[1]; 6 h,0.849
same,cell viability,[1]; 24 h,0.827
same,ACBP immunofluorescence intensity,[2]; 6 h,0.819
same,ACBP immunofluorescence intensity,[2]; 24 h,0.433
OC1(c2ccc(Cl)cc2)CCN(Cc2c[nH]c3ccccc23)CC1 (5 µM),cell viability,[1]; 6 h,0.656
same,cell viability,[1]; 24 h,0.897
same,ACBP immunofluorescence intensity,[2]; 6 h,0.933
same,ACBP immunofluorescence intensity,[2]; 24 h,0.481
CCOC(=O)c1ncn2c1CN(C)C(=O)c1cc(F)ccc1-2 (5 µM),cell viability,[1]; 6 h,0.862
same,cell viability,[1]; 24 h,1.19
same,ACBP immunofluorescence intensity,[2]; 6 h,0.933
same,ACBP immunofluorescence intensity,[2]; 24 h,0.498
NC(=O)CCCCn1ccc(NC(N)=NCC(F)(F)F)n1 (5 µM),cell viability,[1]; 6 h,1.03
same,cell viability,[1]; 24 h,1.09
same,ACBP immunofluorescence intensity,[2]; 6 h,0.874
same,ACBP immunofluorescence intensity,[2]; 24 h,0.526
CC(C)NC[C@H](O)COc1cccc2[nH]ccc12 (5 µM),cell viability,[1]; 6 h,0.888
same,cell viability,[1]; 24 h,0.797
same,ACBP immunofluorescence intensity,[2]; 6 h,0.905
same,ACBP immunofluorescence intensity,[2]; 24 h,0.462
C[C@@]1(S)[C@H](O)[C@@H](COP(=O)(O)OP(=O)(O)OP(=O)(O)O)O[C@H]1n1cnc2c(N)ncnc21 (5 µM),cell viability,[1]; 6 h,1.04
same,cell viability,[1]; 24 h,1.19
same,ACBP immunofluorescence intensity,[2]; 6 h,0.982
same,ACBP immunofluorescence intensity,[2]; 24 h,0.797
O=c1ccn(C2OC(COP(=O)(O)O)C(O)C2O)c(=O)[nH]1 (stereo unspecified) (5 µM),cell viability,[1]; 6 h,0.979
same,cell viability,[1]; 24 h,1.07
same,ACBP immunofluorescence intensity,[2]; 6 h,1
same,ACBP immunofluorescence intensity,[2]; 24 h,0.601
C1COC(NC(C2CC2)C2CC2)=N1 (5 µM),cell viability,[1]; 6 h,0.666
same,cell viability,[1]; 24 h,0.784
same,ACBP immunofluorescence intensity,[2]; 6 h,0.944
same,ACBP immunofluorescence intensity,[2]; 24 h,0.848
CCC(C)N(C)C(=O)c1cc2ccccc2c(-c2ccccc2Cl)n1 (stereo unspecified) (5 µM),cell viability,[1]; 6 h,0.871
same,cell viability,[1]; 24 h,1.24
same,ACBP immunofluorescence intensity,[2]; 6 h,0.969
same,ACBP immunofluorescence intensity,[2]; 24 h,0.658
CSc1ccc2c(c1)N(CCC1CCCCN1C)c1ccccc1S2 (stereo unspecified) (5 µM),cell viability,[1]; 6 h,0.858
same,cell viability,[1]; 24 h,1.3
same,ACBP immunofluorescence intensity,[2]; 6 h,0.921
same,ACBP immunofluorescence intensity,[2]; 24 h,0.784
COc1cc(C(=O)OCCCN2CCCN(CCCOC(=O)c3cc(OC)c(OC)c(OC)c3)CC2)cc(OC)c1OC (5 µM),cell viability,[1]; 6 h,0.904
same,cell viability,[1]; 24 h,1.01
same,ACBP immunofluorescence intensity,[2]; 6 h,0.994
same,ACBP immunofluorescence intensity,[2]; 24 h,0.92
O=C(O)[C@H]1C[C@H](C(=O)O)N1 (5 µM),cell viability,[1]; 6 h,1.06
same,cell viability,[1]; 24 h,1.21
same,ACBP immunofluorescence intensity,[2]; 6 h,0.868
same,ACBP immunofluorescence intensity,[2]; 24 h,0.343
CN1CCN2c3ccccc3Cc3ccccc3C2C1 (stereo unspecified) (5 µM),cell viability,[1]; 6 h,0.822
same,cell viability,[1]; 24 h,1.03
same,ACBP immunofluorescence intensity,[2]; 6 h,0.954
same,ACBP immunofluorescence intensity,[2]; 24 h,0.635
CN1CCC(=C2c3ccccc3CC(=O)c3sccc32)CC1 (5 µM),cell viability,[1]; 6 h,1.1
same,cell viability,[1]; 24 h,0.926
same,ACBP immunofluorescence intensity,[2]; 6 h,0.943
same,ACBP immunofluorescence intensity,[2]; 24 h,0.611
CC(CN1c2ccccc2Sc2ccccc21)N(C)C (stereo unspecified) (5 µM),cell viability,[1]; 6 h,1.03
same,cell viability,[1]; 24 h,0.817
same,ACBP immunofluorescence intensity,[2]; 6 h,0.968
same,ACBP immunofluorescence intensity,[2]; 24 h,0.635

# At a glance, part of the list above:
smiles,measurement,setting,value
O=c1[nH]c2cc(Cl)ccc2c(O)c1-c1cccc(Oc2ccccc2)c1 (5 µM),ACBP immunofluorescence intensity,[2]; 6 h,0.662
same,ACBP immunofluorescence intensity,[2]; 24 h,0.766

# Laid out differently: entries from further up
smiles | measurement | setting | value
OC1(c2ccc(Cl)cc2)CCN(Cc2c[nH]c3ccccc23)CC1 (5 µM) | ACBP immunofluorescence intensity | [2]; 6 h | 0.933
same | ACBP immunofluorescence intensity | [2]; 24 h | 0.481
CCOC(=O)c1ncn2c1CN(C)C(=O)c1cc(F)ccc1-2 (5 µM) | cell viability | [1]; 6 h | 0.862
